Publication PMC3084264
No constants are given. Whether binding was seen depends on the method and setting. In cells and extracts the contact can be indirect. A result given as binding can be weak or reduced; the word gives no strength. For some assays here: Where a sequence is shown, tags or fusion partners need not be part of it.

Sequences of proteins named here, by UniProt entry; tags and fusion partners are left off. A change or cut given only in a name is not applied to a line headed by its entry.
UniProt Q56239: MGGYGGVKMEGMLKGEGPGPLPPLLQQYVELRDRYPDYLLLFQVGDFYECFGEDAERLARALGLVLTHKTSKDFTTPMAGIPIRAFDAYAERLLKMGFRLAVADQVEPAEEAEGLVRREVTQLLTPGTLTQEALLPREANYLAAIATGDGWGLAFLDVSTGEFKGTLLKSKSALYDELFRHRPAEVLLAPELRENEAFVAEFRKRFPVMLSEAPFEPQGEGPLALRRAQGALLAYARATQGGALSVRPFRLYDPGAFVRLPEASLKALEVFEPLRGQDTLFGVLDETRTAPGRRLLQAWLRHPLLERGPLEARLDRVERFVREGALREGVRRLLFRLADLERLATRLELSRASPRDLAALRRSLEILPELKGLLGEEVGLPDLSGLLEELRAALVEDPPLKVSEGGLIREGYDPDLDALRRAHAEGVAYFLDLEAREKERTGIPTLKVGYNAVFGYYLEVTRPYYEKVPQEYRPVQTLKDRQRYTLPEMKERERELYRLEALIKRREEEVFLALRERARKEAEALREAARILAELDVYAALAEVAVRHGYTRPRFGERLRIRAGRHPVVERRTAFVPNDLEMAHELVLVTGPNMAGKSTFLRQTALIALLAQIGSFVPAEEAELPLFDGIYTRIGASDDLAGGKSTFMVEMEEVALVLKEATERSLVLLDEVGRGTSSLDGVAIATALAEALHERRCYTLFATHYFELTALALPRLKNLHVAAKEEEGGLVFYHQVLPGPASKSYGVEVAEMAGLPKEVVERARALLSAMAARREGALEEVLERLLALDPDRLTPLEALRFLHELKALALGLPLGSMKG
UniProt Q9RA54: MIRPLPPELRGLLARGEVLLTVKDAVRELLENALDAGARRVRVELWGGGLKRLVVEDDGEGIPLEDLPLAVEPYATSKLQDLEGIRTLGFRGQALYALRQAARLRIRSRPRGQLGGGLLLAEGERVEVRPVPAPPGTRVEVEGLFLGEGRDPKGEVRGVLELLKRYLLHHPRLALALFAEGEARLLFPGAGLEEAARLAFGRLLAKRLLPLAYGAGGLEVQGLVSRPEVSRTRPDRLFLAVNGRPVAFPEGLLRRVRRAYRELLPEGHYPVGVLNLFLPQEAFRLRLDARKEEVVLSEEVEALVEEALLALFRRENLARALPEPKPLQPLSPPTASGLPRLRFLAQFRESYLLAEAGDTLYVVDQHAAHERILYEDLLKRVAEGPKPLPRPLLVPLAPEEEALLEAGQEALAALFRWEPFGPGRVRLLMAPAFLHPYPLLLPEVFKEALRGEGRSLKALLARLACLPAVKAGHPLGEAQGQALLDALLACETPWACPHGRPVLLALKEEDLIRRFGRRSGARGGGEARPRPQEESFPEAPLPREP

Columns and labels:
[1] = target: T1, Thermus thermophilus HB8 MutS2 (endogenous) (Thermus thermophilus HB8 (endogenous in T. thermophilus HB8 cells)) (UniProt Q5SHT5); assay: co-IP; endogenous proteins of T. thermophilus HB8 lysate (50 mM Tris-HCl pH 7.5, 30 mM NaCl) treated with DNase I 0.5 mg/ml, 37°C 30 min; polyclonal rabbit antibody on Dynabeads-Protein A; Western blot
T1 sequence: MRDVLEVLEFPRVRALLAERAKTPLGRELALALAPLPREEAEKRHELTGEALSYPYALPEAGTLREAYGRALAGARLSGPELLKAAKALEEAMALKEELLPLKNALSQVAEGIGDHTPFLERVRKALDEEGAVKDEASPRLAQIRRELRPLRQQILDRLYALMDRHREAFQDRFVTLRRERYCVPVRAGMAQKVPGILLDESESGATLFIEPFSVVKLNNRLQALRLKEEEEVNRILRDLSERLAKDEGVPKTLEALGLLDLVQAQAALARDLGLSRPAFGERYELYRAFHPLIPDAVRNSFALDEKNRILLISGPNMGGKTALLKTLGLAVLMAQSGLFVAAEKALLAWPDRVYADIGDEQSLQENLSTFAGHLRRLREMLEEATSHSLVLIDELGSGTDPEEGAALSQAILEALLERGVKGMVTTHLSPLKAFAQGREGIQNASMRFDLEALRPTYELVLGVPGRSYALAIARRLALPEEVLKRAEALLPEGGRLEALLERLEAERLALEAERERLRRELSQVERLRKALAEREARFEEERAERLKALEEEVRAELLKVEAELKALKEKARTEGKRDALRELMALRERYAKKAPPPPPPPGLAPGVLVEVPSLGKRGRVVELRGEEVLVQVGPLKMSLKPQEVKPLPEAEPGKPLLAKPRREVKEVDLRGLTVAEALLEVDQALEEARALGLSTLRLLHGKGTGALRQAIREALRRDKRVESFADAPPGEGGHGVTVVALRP

[2] = target: T2, recombinant His6-tagged MutS2 (Thermus thermophilus HB8) (T. thermophilus) (UniProt Q5SHT5); assay: pull-down; His6-tagged MutS2 held on Talon resin; T. thermophilus HB8 lysate loaded; without adenine nucleotide, 30 min at room temperature; washed with buffer II with 10 mM imidazole, eluted with 100 mM imidazole; Western blot; only the target purified
T2 sequence: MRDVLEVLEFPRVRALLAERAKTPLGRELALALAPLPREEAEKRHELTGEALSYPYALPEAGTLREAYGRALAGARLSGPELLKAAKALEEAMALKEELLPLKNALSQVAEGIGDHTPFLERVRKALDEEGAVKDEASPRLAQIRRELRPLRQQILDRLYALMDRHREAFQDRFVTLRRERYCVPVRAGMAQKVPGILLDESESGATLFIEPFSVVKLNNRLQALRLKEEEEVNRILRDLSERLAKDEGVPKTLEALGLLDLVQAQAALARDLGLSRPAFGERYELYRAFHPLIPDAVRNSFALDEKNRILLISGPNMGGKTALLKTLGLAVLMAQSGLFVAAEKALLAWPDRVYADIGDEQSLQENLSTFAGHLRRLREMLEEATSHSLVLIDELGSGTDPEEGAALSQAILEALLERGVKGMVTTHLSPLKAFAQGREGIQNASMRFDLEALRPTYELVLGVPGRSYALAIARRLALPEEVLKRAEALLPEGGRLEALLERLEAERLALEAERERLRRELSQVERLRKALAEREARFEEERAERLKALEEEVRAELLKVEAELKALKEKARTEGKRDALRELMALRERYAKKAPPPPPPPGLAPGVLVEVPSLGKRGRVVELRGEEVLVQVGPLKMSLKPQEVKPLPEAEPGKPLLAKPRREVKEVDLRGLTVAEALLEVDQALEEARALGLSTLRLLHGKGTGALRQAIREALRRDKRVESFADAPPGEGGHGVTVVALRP

[3] = target: T2, recombinant His6-tagged MutS2 (Thermus thermophilus HB8) (T. thermophilus); assay: pull-down; His6-tagged MutS2 held on Talon resin; T. thermophilus HB8 lysate loaded; with 5 mM ATP or ADP and 5 mM MgCl2, 30 min at room temperature; washed with buffer II with 10 mM imidazole, eluted with 100 mM imidazole; Western blot; only the target purified
[4] = target: Thermus thermophilus HB8 MutS (endogenous) (Thermus thermophilus HB8 (endogenous in T. thermophilus HB8 cells)) (UniProt Q56239); assay: co-IP; endogenous proteins of T. thermophilus HB8 lysate (50 mM Tris-HCl pH 7.5, 30 mM NaCl) treated with DNase I 0.5 mg/ml, 37°C 30 min; polyclonal rabbit antibody on Dynabeads-Protein A; Western blot
[5] = target: Thermus thermophilus HB8 MutL (endogenous) (Thermus thermophilus HB8 (endogenous in T. thermophilus HB8 cells)) (UniProt Q9RA54); assay: as above

## Thermus thermophilus HB8 MutL (endogenous) (from UniProt Q9RA54)
[1]
  binding: binds
[2]
  binding: binds
[3]
  binding: binds

## Thermus thermophilus HB8 MutS (endogenous) (from UniProt Q56239)
[1]
  binding: binds
[2]
  binding: no binding (only without an adenine nucleotide)
[3]
  binding: binds

B1: Thermus thermophilus HB8 MutS2 (endogenous) (protein, UniProt Q5SHT5 1-744)
chain: MRDVLEVLEFPRVRALLAERAKTPLGRELALALAPLPREEAEKRHELTGEALSYPYALPEAGTLREAYGRALAGARLSGPELLKAAKALEEAMALKEELLPLKNALSQVAEGIGDHTPFLERVRKALDEEGAVKDEASPRLAQIRRELRPLRQQILDRLYALMDRHREAFQDRFVTLRRERYCVPVRAGMAQKVPGILLDESESGATLFIEPFSVVKLNNRLQALRLKEEEEVNRILRDLSERLAKDEGVPKTLEALGLLDLVQAQAALARDLGLSRPAFGERYELYRAFHPLIPDAVRNSFALDEKNRILLISGPNMGGKTALLKTLGLAVLMAQSGLFVAAEKALLAWPDRVYADIGDEQSLQENLSTFAGHLRRLREMLEEATSHSLVLIDELGSGTDPEEGAALSQAILEALLERGVKGMVTTHLSPLKAFAQGREGIQNASMRFDLEALRPTYELVLGVPGRSYALAIARRLALPEEVLKRAEALLPEGGRLEALLERLEAERLALEAERERLRRELSQVERLRKALAEREARFEEERAERLKALEEEVRAELLKVEAELKALKEKARTEGKRDALRELMALRERYAKKAPPPPPPPGLAPGVLVEVPSLGKRGRVVELRGEEVLVQVGPLKMSLKPQEVKPLPEAEPGKPLLAKPRREVKEVDLRGLTVAEALLEVDQALEEARALGLSTLRLLHGKGTGALRQAIREALRRDKRVESFADAPPGEGGHGVTVVALRP
[4]
  binding: binds
[5]
  binding: binds
